{"source": "patent US5208148A", "about": "“Lipophilic fluorescent glycosidase substrates” (Molecular Probes, Inc., priority 1990, dated 1993)", "system": "CRE BAG 2 cells", "assay": "Comparison of FDG with fatty acylated FDG derivatives: cell entry, retention and leakage", "format": "cell-based, mouse", "note": "Some results come without the dose or concentration used."}
{"smiles": "CCCCCCCC(=O)Nc1ccc2c(c1)C(=O)OC21c2ccc(O[C@@H]3O[C@H](CO)[C@H](O)[C@H](O)[C@H]3O)cc2Oc2cc(O[C@@H]3O[C@H](CO)[C@H](O)[C@H](O)[C@H]3O)ccc21", "note": "[C8 FDG]", "values": [{"measurement": "time after which fluorescence was noticed outside cell", "value": 1, "unit": "h"}]}
